Results are given in words; binding and its absence hold for the method and conditions named. Binding calls can cover weak binding; strength is not graded here. Sequences can lack the tags named with a protein.
Columns and labels:
[1] = target: purified human αvβ5 integrin (human); experiment: plate assay on coated αvβ5 integrin, linear regression slope superimposed
[2] = target: purified human αvβ5 integrin (human); experiment: plate assay: wells coated with 5 ng purified human αvβ5 integrin, increasing amounts of rat Angptl4-V5 supernatant, anti-V5 HRP, OD 450 nm

- binding [1]: binds
- binding [2]: binds
B1: recombinant rat Angptl4-V5 (sialylated), secreted from HEK293 stable cell line (ligand, not shown: small tags and cut ends)
chain: QGRPAQPEPPRFASWDEMNLLAHGLLQLGHGLREHVERTRGQLGALERRMAACGNACQGPKGTDPKDRVPEGQAPETLQSLQTQLKAQNSKIQQLFQKVAQQQRYLSKQNLRIQNLQSQIDLLTPTHLDNGVDKTSRGKRLPKMAQLIGLTPNATRLHRPPRDCQELFQEGERHSGLFQIQPLGSPPFLVNCEMTSDGGWTVIQRRLNGSVDFNQSWEAYKDGFGDPQGEFWLGLEKMHSITGDRGSQLAVQLQDWDGNAKLLQFPIHLGGEDTAYSLQLTEPTANELGATNVSPNGLSLPFSTWDQDHDLRGDLNCAKSLSGGWWFGTCSHSNLNGQYFHSIPRQRQQRKKGIFWKTWKGRYYPLQATTLLIQPMEATAAS
modifications: sialylated (cells cultured with ManNAc)

Reference: patent US20200102357A1
